# Experimental data published in article PMC12557800.
# Results are given in words; binding and its absence hold for the method and conditions named. In cells and extracts the contact can be indirect. Some results given as binding are weak or reduced against the parent protein; the word gives no strength. Where a sequence is shown, tags or fusion partners need not be part of it.
# B1: SLC9C1 (sperm-specific Na+/H+ exchanger), endogenous in mouse testis (protein, UniProt Q6UJY2 1-1175)
# chain: MEMEEISENLTASHSIKLTNMWLELLKSVFLSTPQDLPEIILILSLICTVGAFLNMHLKDFPIPLPVILFLIGCCFEILSFASTQIQIYADAIQWMDPDIFFGIFTPVIIFNVAFDMDIYMLQKLFWQILVITIPGFLINYTLILWYLQSVNKLSLKTVPWLLFSAVLISSDPMLTSASIRDLGLSRSLTNLINGESLLTSVLSLVIYSGVVHIRFKSKSVNHTLAHKVMSTAWSYIVESFITGIVFTKVIQLWMATIFGDDVNHITLIFSVLYLIFYVCELVGMSGIFTLATIGLFLNSTSFKPGVEAFLLEFWNCLSFIGFLMVFTFIGLLIPAHTYLHISFSDVYYSLNIYFTLIVLRLLVFLLMSPILSRLGHGFSWRWAFIMVWSEMKGTPNINMALLLAYSDISLGSERERSQILFHGVSVCVITLIVNRFILPMAVTKLGLRDVTSTKYKSVYYTFQHFQELTKSTAMALKFDKDLANADWNMVDNAIILQNPYAMNQEEITEHQKVKCPDCNKEIDETLNIEAMELTNRRLLSAQIASYQRQYRNEVLSQSAVQVLVGAAGSFGEKKGEYMSPENIKNFSESKKLLSFLRKLLLNWVYNTKKDKGVPSRYMFLHACHRIVFTNEFEYTGYLVVLMSTYPMIICWISRLKDIYDNEIKCANYYFLAFYILEALLKVAAMRKEFFSHTWLLFELGITLVGVLDIILIETDSISYNFDLTETVVFMNVIRLLRILRILKLVTPKLLQIIDKRMSQQISFRYSILKGYVQGEMDVLNIIDQIASSKQTKQILLKRVMRNMEHAMKELGYLEYDHPEIAVTMKTKEEINVMLNMAREIVKAFRSKGIIHKVEGTEINKLIMAKKIQVLDLQSVIQPFNVEEAPCNIPWLSEDPEAITFIQEKAKVVTFDCGNNIFEEGDEPEGIYVIISGMVKLKRSKPHLEMERVSAESEIKIHPLPHTEYLLSGEIIGELNCLTKERMQYSATCKTVVETYFIPISHLYEGFEKRCPNMKHKMWQKIGLAITAQKIREHLSFEDWNYKLQLKLCNAFIRDIPKSMKTDIYDETVTHVVLIHGSAEDCQLRKIYKAPFLIPVTCHQIQGMEDFTKVMIIQTSIAVRKFRWNVRKYIPPRRISMKPDSERESFETLDETSEEDNGKKENQENEELIEENINI
# B2: mouse TMEM217-3xFLAG expressed in HEK293T cells (protein, UniProt Q14AF1 1-189)
# chain: MKHHSWCGLTARMGTVLSGVFSIMATHMHLIFERKHLGNGNCTENFQAQGLNILRYFFICWSFQIVLFTSIITMIASCFLLYSVYAQIYEGLMSYVIWIIIYESTSLTVQTLTDEFSVALVRAMRWFGWVSRASLHCFWLYFVVTHAQIIYQSKKQGNILTYHRRISLGSGDRPRRKSKIIHFVQHHSE
# B3: human TMEM217-PA (protein, UniProt Q8N7C4 1-229)
# chain: MKQQQWCGMTAKMGTVLSGVFTIMAVDMYLIFEQKHLGNGSCTEITPKYRGASNIINNFIICWSFKIVLFLSFITILISCFLLYSVYAQIFRGLVIYIVWIFFYETANVVIQILTNNDFDIKEVRIMRWFGLVSRTVMHCFWMFFVINYAHITYKNRSQGNIISYKRRISTAEILHSRNKRLSISSGFSGSHLESQYFERQSFHTSIFTCLSPVPSSAPSTCRYTIDVC
# Experiments:
# [1] = target: T1, TMEM217-3xFLAG (mouse, transgene in Tmem217-3xFLAG Tg mice) (mouse) (UniProt Q14AF1); experiment: co-IP; FLAG IP of testis samples, immunoblot for SLC9C1 and TMEM217-3xFLAG
# T1 sequence: B2 chain
# [2] = target: T2, mouse full-length SLC9C1-PA (mouse) (UniProt Q6UJY2); experiment: co-IP; HEK293T cell lysates coexpressing mouse TMEM217-3xFLAG and mouse SLC9C1-PA (full length or truncated); IP with anti-FLAG or anti-PA antibodies, immunoblot with FLAG and PA antibodies
# T2 sequence: B1 chain
# [3] = target: T3, human SLC9C1-3xFLAG (human) (UniProt Q4G0N8); experiment: co-IP; human TMEM217-PA and human SLC9C1-3xFLAG constructs; cells and antibodies not told in the main text (SI Appendix, Fig. S4C)
# T3 sequence: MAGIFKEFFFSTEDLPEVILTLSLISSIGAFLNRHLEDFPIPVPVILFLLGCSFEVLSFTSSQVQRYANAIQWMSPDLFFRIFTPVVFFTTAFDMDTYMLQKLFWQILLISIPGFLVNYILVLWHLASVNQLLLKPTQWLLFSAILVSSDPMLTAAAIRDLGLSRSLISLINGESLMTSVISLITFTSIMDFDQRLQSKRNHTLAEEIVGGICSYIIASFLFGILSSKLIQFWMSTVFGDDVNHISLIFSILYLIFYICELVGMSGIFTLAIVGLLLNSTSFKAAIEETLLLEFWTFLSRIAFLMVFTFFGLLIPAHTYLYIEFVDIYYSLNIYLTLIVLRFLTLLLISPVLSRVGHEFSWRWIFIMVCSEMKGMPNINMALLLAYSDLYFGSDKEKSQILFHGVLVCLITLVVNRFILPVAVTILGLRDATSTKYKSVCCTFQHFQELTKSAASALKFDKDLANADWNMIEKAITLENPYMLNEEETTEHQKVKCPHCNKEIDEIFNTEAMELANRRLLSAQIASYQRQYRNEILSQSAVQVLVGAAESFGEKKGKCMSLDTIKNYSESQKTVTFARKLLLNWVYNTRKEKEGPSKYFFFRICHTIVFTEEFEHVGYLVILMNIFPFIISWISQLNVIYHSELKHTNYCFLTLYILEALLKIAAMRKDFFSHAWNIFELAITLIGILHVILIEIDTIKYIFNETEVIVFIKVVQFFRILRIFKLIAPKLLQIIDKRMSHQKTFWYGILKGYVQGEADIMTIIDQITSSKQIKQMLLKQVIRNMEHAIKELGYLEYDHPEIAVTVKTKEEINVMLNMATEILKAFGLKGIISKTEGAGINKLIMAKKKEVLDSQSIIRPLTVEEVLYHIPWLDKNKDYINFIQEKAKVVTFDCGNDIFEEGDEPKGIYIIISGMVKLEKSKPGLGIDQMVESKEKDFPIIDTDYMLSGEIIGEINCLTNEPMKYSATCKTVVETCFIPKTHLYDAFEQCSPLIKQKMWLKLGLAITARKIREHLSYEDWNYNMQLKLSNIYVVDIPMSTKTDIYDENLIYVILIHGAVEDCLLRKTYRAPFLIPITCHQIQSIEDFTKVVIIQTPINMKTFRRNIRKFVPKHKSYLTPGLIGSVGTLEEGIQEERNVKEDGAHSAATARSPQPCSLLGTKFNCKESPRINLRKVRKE
binder,measurement,setting,value
B1,binding,[1],binds
B2,binding,[2],binds
B3,binding,[3],binds
